Laboratory results: PubChem BioAssay AID493014 (National Center for Advancing Translational Sciences (NCATS), 2011)
This is one part of the list. These are further read-outs of the screen, such as a control signal, another cell line or another target. No call is given for them. Compounds called inactive in the main read-out are mostly missing here. Potencies come from curve fits of mixed quality, noted in brackets.

Assay: qHTS Assay to Find Inhibitors of Chronic Active B-Cell Receptor Signaling
Details: ABC-DLBCL IkBa-CBG/CBR reporter, luminescence ratio (green luciferase fused to IkBa over red control in TMD8 lymphoma cells), 4 h
How it was run: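 Cell line TMD8 (human ABC DLBCL), stably expressing tet-inducible CBG68-IkBa fusion and CBR; IMDM/0.5% FBS; cpd up to 46 uM; dox induction, 4 h, 37C/5% CO2; dual luminescence; green/red ratio; MG132 control.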

[1] = measured here: CBR red luminescence, cell number
[2] = measured here: IkBa-CBG green luminescence

| Compound | AC50 [1] | AC50 [2] |
| --- | --- | --- |
| O=C(NC12CC3CC(CC(C3)C1)C2)OC1CN2CCC1CC2 (stereo unspecified) | 35.5 µM [falling, single point] | – |
| COc1cc2c(C(=O)O)c(C)n(C)c2cc1Br | 22.4 µM [rising, single point] | – |
| COC(=O)C1=C(c2ccc(-c3ccccc3)c(F)c2)C[C@@H]2CC[C@H]1N2C(=O)NCc1ccco1 | 16.4 µM [falling, single point] | – |
| CC(C)(O)/C=C/C(=O)[C@](C)(O)C1[C@H](O)C[C@@]2(C)C3CC=C4C(C[C@H](O)[C@@H](O)C4(C)C)[C@]3(C)C(=O)C[C@]12C (stereo partly specified) | 29.1 µM [falling, single point] | – |
| Cc1cccc(-c2cccc(NC(=O)C3CCCN(Cc4cccnc4)C3)c2)c1 (stereo unspecified) | 12.6 µM [falling, partial curve] | – |
| CNC(=O)Oc1cccc2ccccc12 | 7.94 µM [rising, partial curve, poor fit] | – |
| c1cnc2c(c1)ccc1ncccc12 | 2.82 µM [falling, full curve] | – |
| O=C1Nc2ccccc2/C1=C/c1cnc[nH]1 | 7.94 µM [rising, partial curve, poor fit] | – |
| Cc1ccc(CN2CCSc3ccc(C(=O)N4CCC5(CC4)OCCO5)cc32)cc1 | 12.6 µM [falling, single point] | – |
| CCCCn1c(O)c(C(C)=Nc2cccc(C(=O)O)c2)c(=O)[nH]c1=O | 2.31 µM [rising, partial curve, poor fit] | – |
| Cc1cc(C)c(C(=O)CN2CCOCC2)c(C)c1 | – | 16.4 µM [falling, partial curve] |
| Cc1nc2ccccn2c1P(=S)(N1CCCCC1)N1CCCCC1 | 0.58 µM [rising, full curve, poor fit] | – |
| C/C(=N\Nc1ccccc1)c1c(O)[nH]c(=O)[nH]c1=O | 14.1 µM [rising, single point] | – |
| CC1CC2(O)c3nonc3CCC2N1O (stereo unspecified) | 29.1 µM [rising, single point] | – |
| COc1ccccc1-n1c(-c2ccccc2Br)nc2ccccc2c1=O | 22.4 µM [falling, partial curve, poor fit] | – |
| Cn1cc(C(=O)OCC(=O)N2CCCC2)c2ccccc21 | 11.6 µM [falling, partial curve] | – |
| CN(C(=O)Oc1ccc([N+](=O)[O-])cc1)c1ccccc1 | 6.51 µM [rising, partial curve, poor fit] | – |
| CC1CCN(S(=O)(=O)c2ccc(C(=O)Nc3nnc(-c4ccncc4)o3)cc2)CC1 | 22.4 µM [falling, partial curve, poor fit] | – |
| O=C(NCCc1cccs1)c1ccc(Cl)c(Cl)c1 | 11.2 µM [falling, partial curve] | – |
| NC(N)=Nc1ccc2[nH]c3c(c2c1)C[C@@]1(O)[C@H]2Cc4ccc(O)c5c4[C@@]1(CCN2CC1CC1)[C@H]3O5 | – | 18.4 µM [falling, single point] |
| CCn1cc(C=C2C(=O)NC(=O)NC2=O)c2ccccc21 | 6.31 µM [rising, partial curve, poor fit] | – |

| Compound | AC50 [1] | AC50 [2] |
| --- | --- | --- |
| CCOP(=O)(c1ccc(N(C)C)cc1)C(O)c1c(Cl)cccc1Cl (stereo unspecified) | 3.66 µM [falling, partial curve] | – |
| COc1ccc2oc3c(c2c1)NC(=O)CN=C3c1ccccc1 | 0.447 µM [rising, partial curve, poor fit] | – |
| Cc1ccc2c(c1)C1CN(C)CCC1N2C(=O)Nc1cccc(C(F)(F)F)c1 (stereo unspecified) | 6.51 µM [falling, single point] | – |
| COC(=O)C1=C(c2ccc(-c3ccccc3)c(F)c2)C[C@@H]2CC[C@H]1N2C(=O)NCCOc1ccc(OC)cc1 | 10.3 µM [falling, partial curve] | – |
| COC(=O)C1=C(c2ccc(Cl)c(C(F)(F)F)c2)C[C@@H]2CC[C@H]1N2C(=O)NCCOc1ccccc1Cl | 11.6 µM [falling, partial curve, poor fit] | – |
| Nc1ccccc1C(=O)OCc1ccc([N+](=O)[O-])cc1 | 6.31 µM [rising, partial curve, poor fit] | – |
| Cc1c(C(c2ccc(O)cc2)c2c(O)c3ccccc3oc2=O)c(=O)n(-c2ccccc2)n1C (stereo unspecified) | 9.2 µM [falling, partial curve] | – |
| COc1cccc(CN2CC=C(c3ccc(F)cc3)CC2)c1 | 12.6 µM [rising, partial curve, poor fit] | – |
| N[C@@H](Cc1c[nH]c2ccccc12)c1nnc(SCc2ccccc2F)o1 | 6.31 µM [rising, single point] | – |
| Cn1c(O)c(C(=NCCc2c[nH]c3ccccc23)c2ccccc2)c(=O)n(C)c1=O | 22.4 µM [falling, single point] | – |
| CCOC(=O)C1(CCc2ccccc2)CCN(Cc2cccc3cnccc23)CC1 | 11.2 µM [rising, partial curve, poor fit] | – |
| CCn1nc(-c2ccccc2)nc2c(=O)n(C)c(=O)nc1-2 | 5.8 µM [falling, full curve] | 4.61 µM [rising, partial curve, poor fit] |
| Cc1ccc(C(=O)NNC(=O)c2cc3ccccc3cc2O)cc1 | 11.2 µM [falling, partial curve] | – |
| Cc1ccc(NP(=O)(Oc2ccccc2F)Oc2ccccc2F)cc1C | 29.1 µM [falling, single point] | – |
| Cc1cc(C(C#N)c2ccc(Cl)cc2)c(Cl)cc1NC(=O)c1cc(I)cc(I)c1O (stereo unspecified) | 4.11 µM [falling, partial curve, poor fit] | – |
| CC(C)(C)c1cc(C=C(C#N)C#N)cc(C(C)(C)C)c1O | 3.26 µM [falling, full curve] | – |
| COc1ccc(-[n+]2c(-c3ccccc3)cc(-c3ccccc3)cc2-c2ccccc2)cc1 | 11.6 µM [falling, partial curve] | 23.1 µM [rising, partial curve, poor fit] |
| CCOP(=O)(OCC)c1cc(CC)ccc1O | 14.1 µM [rising, partial curve, poor fit] | – |
| O=C(NCC1CCCCC1)c1cc2ccccc2cc1O | 10 µM [falling, single point] | – |
| Cc1nc(-c2ccc(Cl)cc2)sc1C(=O)O | 3.16 µM [falling, full curve] | – |
| COc1cccc(C2(O)CCSCC2CN(C)C)c1 (stereo unspecified) | 2.59 µM [rising, single point] | – |

| Compound | AC50 [1] | AC50 [2] |
| --- | --- | --- |
| C[C@@H]1C[C@@H]([C@H](O)CC2CC(=O)NC(=O)C2)C(=O)[C@@H](C)C1 | 1.16 µM [falling, full curve] | 8.2 µM [rising, partial curve, poor fit] |
| Cc1ccc(-n2c(/C=C/c3ccccc3)nc3ccccc3c2=O)cc1C | 1.26 µM [rising, full curve] | – |
| CCCCN1C(=O)NC(=O)C2(Cc3c(nc4c(C)cccn4c3=O)N3CCc4ccccc4C32)C1=O (stereo unspecified) | 0.82 µM [falling, full curve, poor fit] | 0.82 µM [rising, full curve, poor fit] |
| COc1ccc(C2NCc3ccc4c(c3-n3cccc32)OCO4)cc1O (stereo unspecified) | 18.4 µM [falling, single point] | – |
| O=C(CSc1ccccn1)Nc1ccc(N2CCOCC2)cc1 | 28.2 µM [rising, single point] | – |
| CCCCn1c(=O)c(C=Nc2cc([N+](=O)[O-])ccc2OC)c(O)n(CCCCl)c1=O | 0.461 µM [rising, full curve, poor fit] | – |
| COc1ccc(C(=O)Nc2nc3ccccc3s2)c(OC)c1 | 0.126 µM [falling, full curve] | – |
| CCOC(=O)c1c(C)n(C(C)C)c2ccc(OC(=O)c3ccc(N4C(=O)CCC4=O)cc3)cc12 | 2.91 µM [rising, full curve] | – |
| COc1cc(C)cc(CN2CC=C(c3ccccc3)CC2)c1O | 7.94 µM [rising, partial curve] | – |
| Cc1ccnc(-n2c(-c3ccco3)nc3ccccc3c2=O)c1 | 2.06 µM [rising, single point] | – |
| COc1ccc(CNCCc2c(C)[nH]c3ccc(OC(F)(F)F)cc23)c(OC)c1 | 15.8 µM [falling, partial curve, poor fit] | – |
| Cc1ccc(C(=O)O)cc1NS(=O)(=O)c1ccc2c(c1)oc(=O)n2C | 11.2 µM [falling, single point] | – |
| COc1cc(C(O)CN)ccc1O (stereo unspecified) | 16.4 µM [falling, partial curve] | – |
| O=c1[nH]c(=O)n(Cc2ccco2)c(O)c1C=NC1CCN(Cc2ccccc2)CC1 | 10 µM [rising, partial curve, poor fit] | – |
| COCCNC(=O)c1c(N)n(CCC(C)C)c2nc3ccccc3nc12 | 1.46 µM [falling, partial curve, poor fit] | – |
| O=C1Nc2ccccc2C1Cc1nc2ccccc2c(=O)n1-c1ccccc1 (stereo unspecified) | 17.8 µM [falling, single point] | – |
| C/C(=N\Nc1nc(C)c(C)s1)c1ccc([N+](=O)[O-])cc1 | 10 µM [rising, partial curve] | – |
| CCC(=O)Nc1c(C(=O)Nc2ccc3c(c2)OCCO3)oc2ccccc12 | 3.16 µM [falling, partial curve, poor fit] | – |
| O=C(c1cccnc1)C1CCCN(Cc2nc(-c3cnccn3)no2)C1 (stereo unspecified) | 3.98 µM [rising, partial curve, poor fit] | – |
| Cc1cc(C(=O)OCC(=O)Nc2ccc(F)cc2F)c(C)n1C1CC1 | 3.26 µM [falling, partial curve, poor fit] | – |

Reprinted from the listing (3 entries):

| Compound | AC50 [1] | AC50 [2] |
| --- | --- | --- |
| O=C1Nc2ccccc2C1Cc1nc2ccccc2c(=O)n1-c1ccccc1 (stereo unspecified) | 17.8 µM [falling, single point] | – |
| C/C(=N\Nc1nc(C)c(C)s1)c1ccc([N+](=O)[O-])cc1 | 10 µM [rising, partial curve] | – |
| CCC(=O)Nc1c(C(=O)Nc2ccc3c(c2)OCCO3)oc2ccccc12 | 3.16 µM [falling, partial curve, poor fit] | – |
